Laboratory results taken from US20190077858A1 (KM BIOLOGICS, published 2019).
Substitutions are numbered along the chain they refer to. Results are given in words; binding and its absence hold for the method and conditions named. A result given as binding can be weak or reduced; the word gives no strength.

B1: IgG molecule-type 4A6D (antibody, V domains shown)
VH: EVQLVESGGGLVQPGGSMRLSCTASGFTFDEYAMSWVRQAPGKGLEWVSGISTGGGGTYYADSVEGRFTISRDNSKNTLYLQMNSLRAEDTAVYYCAKPWLSGSRSGDFWGQGTLVTVSS
VL: QSALTQPASVSGSPGQSITISCTGTSSDVGGYNYVSWYQQHPGKAPKLLIYEVSHRPSGVSDRFSGSKSGNTASLTISGLQAEDEADYYCSSFTSSSSLYVFGTGTKLTVL
notes: detected with anti-hFc, so human constant regions; also called human anti-human IL-18 antibody 4A6D
B2: IgG molecule-type 4A6S (antibody, V domains shown)
VH: B1 VH with D30S
VL: B1 VL
notes: IgG prepared by a standard method; also called human anti-human IL-18 antibody 4A6S

Target: monkey IL-18 (Thermo Fisher Scientific K.K.) (monkey)
Test: ELISA on biotinylated cytokine on streptavidin plates

Binder	binding
B1	binds
B2	binds
